Experimental data: PubChem BioAssay AID1224830 (NIAID, 2016)
Assay: 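Genes whose knock-down alters the TNF-alpha reporter response to LPS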 (primary screen). System: human THP-1 monocytic leukaemia cells, TNF dual-luciferase reporter clone, PMA-differentiated to macrophage-like cells. Knock-down reagent: siRNA pool against human genes, 50 nM. Duration: LPS for 4 h, given about 3 days after siRNA transfection. Treatment: bacterial LPS (TLR4 ligand), 10 ng/ml. Measured: 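TNF firefly reporter luminescence divided by renilla, normalised to the plate median, then turned into a robust z-score for each replicate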. Scale: TNF reporter robust z-score: higher = stronger TNF reporter response to LPS. Rule for the call: 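Each well counts as active if its z-score is over 2.8 or under -1.5; controls are left without a call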.
This is an unselected part of about 18,000 reagents. About 2,900 of all reagents (16%) were called active. 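Calls are made per well; low scores hint the gene aids the LPS response, high scores that it dampens it.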 A number with no mark means an inactive call. Repeated entries: four replicate wells of each siRNA pool.

For OR2B2, the values are TNF reporter robust z-score -1.24.
With knock-down of OR2B2 the results were TNF reporter robust z-score -0.31.
With knock-down of OR2B2 the results were TNF reporter robust z-score 0.29.
SPATA9 scored TNF reporter robust z-score 0.47.
For SPATA9, the entry reads TNF reporter robust z-score 0.1.
After knock-down of SPATA9, the screen gave TNF reporter robust z-score -0.22.
SPATA9 gave TNF reporter robust z-score 0.11.
SAMD4B scored TNF reporter robust z-score 0.8.
Depletion of SAMD4B came out at: TNF reporter robust z-score -0.45.
SAMD4B showed TNF reporter robust z-score -0.7.
With knock-down of SAMD4B, the record shows TNF reporter robust z-score -1.34.
With knock-down of TSC22D1, the record shows TNF reporter robust z-score -0.3.
Against TSC22D1, the values are TNF reporter robust z-score -0.2.
Against TSC22D1, the values are TNF reporter robust z-score 0.84.
For TSC22D1, the entry reads TNF reporter robust z-score -0.03.
After knock-down of CLP1 the results were TNF reporter robust z-score 0.93.
Depletion of CLP1 gave: TNF reporter robust z-score 2.02.
Silencing of CLP1 came out at: TNF reporter robust z-score 1.29.
CLP1 showed TNF reporter robust z-score 0.85.
JCHAIN scored TNF reporter robust z-score 0.49.
Depletion of JCHAIN resulted in: TNF reporter robust z-score 0.43.
JCHAIN scored TNF reporter robust z-score -0.27.
With knock-down of JCHAIN the results were TNF reporter robust z-score -1.33.

5 of these entries, reformatted.
gene knocked down | TNF reporter robust z-score
TSC22D1 | -0.2
TSC22D1 | 0.84
TSC22D1 | -0.03
CLP1 | 0.93
CLP1 | 2.02

The list goes on.
CENPE gave TNF reporter robust z-score 1.35.
Against CENPE, the entry reads TNF reporter robust z-score 1.58.
With knock-down of CENPE the results were TNF reporter robust z-score 0.62.
For CENPE the deposit lists TNF reporter robust z-score 0.73.
TMEM106C showed TNF reporter robust z-score -1.03.
After knock-down of TMEM106C, the screen gave TNF reporter robust z-score -0.08.
TMEM106C scored TNF reporter robust z-score -0.83.
TMEM106C gave TNF reporter robust z-score -0.95.
After knock-down of RFXAP, the screen gave TNF reporter robust z-score -1.21.
For RFXAP, the entry reads TNF reporter robust z-score -0.34.
Depletion of RFXAP resulted in: TNF reporter robust z-score -0.53.
RFXAP gave TNF reporter robust z-score -0.88.
Silencing of SLC6A7 resulted in: TNF reporter robust z-score -0.2.
After knock-down of SLC6A7, the record shows TNF reporter robust z-score -1.13.
Knock-down of SLC6A7 resulted in: TNF reporter robust z-score -0.02.
After knock-down of SLC6A7, the record shows TNF reporter robust z-score -0.17.
After knock-down of LRRN2 the results were TNF reporter robust z-score -0.33.
LRRN2 showed TNF reporter robust z-score -1.25.
With knock-down of LRRN2, the record shows TNF reporter robust z-score -1.67 (active).
With knock-down of LRRN2, the screen gave TNF reporter robust z-score -1.1.
ACTN2 gave TNF reporter robust z-score -0.78.
ACTN2 scored TNF reporter robust z-score -0.43.
ACTN2 scored TNF reporter robust z-score -0.26.
After knock-down of ACTN2, the screen gave TNF reporter robust z-score -0.16.
